PMC4605297

Biological target: T1, SsOGT wild type (Sulfolobus solfataricus) (UniProt Q97VW7)
T1 sequence: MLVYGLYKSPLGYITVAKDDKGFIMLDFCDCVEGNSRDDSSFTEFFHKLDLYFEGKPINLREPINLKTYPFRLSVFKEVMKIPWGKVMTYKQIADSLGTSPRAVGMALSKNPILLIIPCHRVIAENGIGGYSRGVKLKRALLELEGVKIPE
Experiment: EMSA
Conditions: EMSA: 0-25 uM protein, 0.2 uM probe, 37 C 10 min, 10 ul, buffer as ref. 17, 8% native PAGE in 1X TBE pH 8.3; recombinant protein; residues 1-151; protein details: N-terminal His (pQE31); label: TAMRA, 5' of A+

GCAACAACGTTGCGCAAACTATTAACTGGCGAACTACTTA (double strand) [ds A+/D- (A+/A- in Fig. 3 legend)]
binding result: binds
